These results are taken from publication PMC11898301.

The chains behind the UniProt entries cited, without tags or fusion partners.
UniProt Q969H0: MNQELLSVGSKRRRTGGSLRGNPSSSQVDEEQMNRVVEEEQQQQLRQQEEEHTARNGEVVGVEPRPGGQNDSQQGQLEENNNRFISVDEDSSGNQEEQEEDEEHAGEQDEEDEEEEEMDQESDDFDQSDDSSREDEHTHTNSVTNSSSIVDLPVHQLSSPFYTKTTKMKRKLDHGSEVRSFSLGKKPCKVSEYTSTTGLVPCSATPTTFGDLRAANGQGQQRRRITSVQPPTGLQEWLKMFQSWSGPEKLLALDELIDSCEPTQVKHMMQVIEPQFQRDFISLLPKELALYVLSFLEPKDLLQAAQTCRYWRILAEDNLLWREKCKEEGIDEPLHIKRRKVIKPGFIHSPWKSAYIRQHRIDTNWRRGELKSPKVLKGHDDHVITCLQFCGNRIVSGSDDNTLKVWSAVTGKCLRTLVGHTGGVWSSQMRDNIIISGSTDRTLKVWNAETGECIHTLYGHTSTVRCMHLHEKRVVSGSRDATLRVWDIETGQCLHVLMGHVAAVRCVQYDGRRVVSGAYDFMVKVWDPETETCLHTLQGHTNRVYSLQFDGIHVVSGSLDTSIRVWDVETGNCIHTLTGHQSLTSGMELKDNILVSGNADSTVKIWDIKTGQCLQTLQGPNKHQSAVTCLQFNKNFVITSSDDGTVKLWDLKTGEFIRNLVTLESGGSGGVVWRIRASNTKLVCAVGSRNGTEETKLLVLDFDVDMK

Results are given in words; binding and its absence hold for the method and conditions named. Binding seen in cells or lysates may run through a third protein. Some binding calls cover weakened binding; strength is not graded here. Where a sequence is shown, tags or fusion partners need not be part of it.

The target of the assay is T1, HA-PRR11 (amino acids 251-360) (human) (UniProt Q96HE9).
T1 sequence: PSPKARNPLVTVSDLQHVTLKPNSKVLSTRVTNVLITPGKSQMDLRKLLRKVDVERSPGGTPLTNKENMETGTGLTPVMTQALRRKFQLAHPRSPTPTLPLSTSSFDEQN
The assay can be described thus: co-IP; 293T cells transfected with HA-PRR11 (WT, fragments or mutants) and Flag-GSK3β or Flag-FBXW7 (WT or mutants); MG132 10 μM for 6 h before collection; IP with HA or Flag antibody, Protein A/G magnetic beads, Western blot; in some panels λ-PPase added to extracts, CHIR-99021, siGSK3β or GSK3β overexpression.

On to Flag-FBXW7 (from UniProt Q969H0 1-707), for which the binding entry is “binds”.
